Results: publication PMC2806520
These are yes or no findings as the source states them, for the method shown. In cells and extracts the contact can be indirect. These calls come from enrichment with a bait or labelling near it, and not all partners need be listed. Where a sequence is shown, tags or fusion partners need not be part of it.

Protein sequences, listed by entry. Tags and fused reporters are not part of them.
UniProt P22147: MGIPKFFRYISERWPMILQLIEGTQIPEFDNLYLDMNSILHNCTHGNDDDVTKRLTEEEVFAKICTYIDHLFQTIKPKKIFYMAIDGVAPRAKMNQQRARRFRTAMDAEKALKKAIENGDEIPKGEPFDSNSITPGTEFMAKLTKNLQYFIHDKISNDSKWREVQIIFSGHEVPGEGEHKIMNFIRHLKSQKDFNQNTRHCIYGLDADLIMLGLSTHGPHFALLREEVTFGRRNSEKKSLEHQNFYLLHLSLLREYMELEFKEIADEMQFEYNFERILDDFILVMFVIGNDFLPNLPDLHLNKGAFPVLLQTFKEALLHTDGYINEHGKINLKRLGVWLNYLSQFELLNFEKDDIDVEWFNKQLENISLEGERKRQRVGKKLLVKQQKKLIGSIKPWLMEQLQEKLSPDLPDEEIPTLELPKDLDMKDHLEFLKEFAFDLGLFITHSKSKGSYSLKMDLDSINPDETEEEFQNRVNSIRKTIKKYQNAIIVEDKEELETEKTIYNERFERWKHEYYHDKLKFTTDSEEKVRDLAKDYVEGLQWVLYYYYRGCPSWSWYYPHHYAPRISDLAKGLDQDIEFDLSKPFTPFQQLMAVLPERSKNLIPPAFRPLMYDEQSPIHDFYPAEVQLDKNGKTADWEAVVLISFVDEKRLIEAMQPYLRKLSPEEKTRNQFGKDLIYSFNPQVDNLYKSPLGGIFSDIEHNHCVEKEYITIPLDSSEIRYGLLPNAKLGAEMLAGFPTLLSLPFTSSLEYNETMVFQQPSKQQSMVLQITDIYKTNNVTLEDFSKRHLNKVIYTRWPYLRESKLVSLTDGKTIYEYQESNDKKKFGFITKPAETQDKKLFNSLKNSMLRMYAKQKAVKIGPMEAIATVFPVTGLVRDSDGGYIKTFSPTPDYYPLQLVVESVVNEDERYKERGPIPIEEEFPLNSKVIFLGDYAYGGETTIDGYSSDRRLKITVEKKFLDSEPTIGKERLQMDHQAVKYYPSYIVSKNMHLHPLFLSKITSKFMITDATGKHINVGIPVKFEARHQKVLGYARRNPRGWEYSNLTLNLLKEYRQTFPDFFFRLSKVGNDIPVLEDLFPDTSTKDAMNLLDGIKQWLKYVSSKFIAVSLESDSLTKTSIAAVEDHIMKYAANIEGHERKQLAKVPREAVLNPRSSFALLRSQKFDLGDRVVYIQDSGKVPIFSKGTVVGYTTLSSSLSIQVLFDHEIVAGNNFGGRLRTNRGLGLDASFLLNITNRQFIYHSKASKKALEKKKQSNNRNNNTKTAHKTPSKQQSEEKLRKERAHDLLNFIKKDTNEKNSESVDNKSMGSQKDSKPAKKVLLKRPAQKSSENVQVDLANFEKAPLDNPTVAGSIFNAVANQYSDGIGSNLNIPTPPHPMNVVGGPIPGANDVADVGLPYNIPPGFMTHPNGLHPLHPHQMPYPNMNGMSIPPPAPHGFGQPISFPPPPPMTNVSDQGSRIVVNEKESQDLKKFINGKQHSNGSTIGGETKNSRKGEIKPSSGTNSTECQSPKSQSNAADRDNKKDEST

Target: T1, Rrp17p, genomically tagged with Protein A (Rrp17-PrA) (S. cerevisiae) (UniProt Q04031)
T1 sequence: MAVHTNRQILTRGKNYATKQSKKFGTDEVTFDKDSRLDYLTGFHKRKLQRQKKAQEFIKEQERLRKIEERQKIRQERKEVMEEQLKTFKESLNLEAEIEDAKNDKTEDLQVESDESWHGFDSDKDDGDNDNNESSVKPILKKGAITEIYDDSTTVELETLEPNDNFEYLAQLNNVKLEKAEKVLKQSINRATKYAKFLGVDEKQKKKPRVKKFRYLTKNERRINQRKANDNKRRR
Experiment: affinity purification with mass spectrometry; single-step affinity purification of Rrp17-PrA complexes from ground frozen yeast cells on IgG-conjugated magnetic beads; SDS-PAGE, Coomassie blue, mass spectrometry

## Xrn1p (from UniProt P22147 1-1528)
  binding: binds
